Measurements taken from article PMC9090922.
No constants are given. Whether binding was seen depends on the method and setting. Binding seen in cells or lysates may run through a third protein. Some binding calls cover weakened binding; strength is not graded here.

Target: T1, TNF receptor I (mouse (endogenous in MC3T3)) (UniProt P25118)
T1 sequence: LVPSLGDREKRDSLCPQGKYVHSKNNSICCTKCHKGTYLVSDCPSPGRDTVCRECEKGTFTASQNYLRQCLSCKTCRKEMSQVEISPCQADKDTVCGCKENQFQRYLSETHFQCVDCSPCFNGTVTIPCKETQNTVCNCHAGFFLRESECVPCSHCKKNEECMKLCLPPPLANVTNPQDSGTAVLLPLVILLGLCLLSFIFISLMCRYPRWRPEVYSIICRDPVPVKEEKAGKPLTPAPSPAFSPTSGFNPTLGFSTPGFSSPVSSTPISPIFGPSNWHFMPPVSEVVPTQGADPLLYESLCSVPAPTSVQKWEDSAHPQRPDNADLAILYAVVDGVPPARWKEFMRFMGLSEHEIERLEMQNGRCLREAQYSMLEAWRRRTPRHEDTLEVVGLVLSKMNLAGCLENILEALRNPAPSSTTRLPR
Test: co-IP; whole-cell lysate of MC3T3 cells overexpressing Klotho; immunoprecipitated with Klotho or TNFR I antibodies on Protein A/G PLUS-Agarose; Western blot with Klotho or TNFR I antibodies

binding: binds
B1: Klotho (protein, UniProt O35082 35-1014)
chain: AEPGQGAQTWARFARAPAPEAAGLLHDTFPDGFLWAVGSAAYQTEGGWRQHGKGASIWDTFTHHSGAAPSDSPIVVAPSGAPSPPLSSTGDVASDSYNNVYRDTEGLRELGVTHYRFSISWARVLPNGTAGTPNREGLRYYRRLLERLRELGVQPVVTLYHWDLPQRLQDTYGGWANRALADHFRDYAELCFRHFGGQVKYWITIDNPYVVAWHGYATGRLAPGVRGSSRLGYLVAHNLLLAHAKVWHLYNTSFRPTQGGRVSIALSSHWINPRRMTDYNIRECQKSLDFVLGWFAKPIFIDGDYPESMKNNLSSLLPDFTESEKRLIRGTADFFALSFGPTLSFQLLDPNMKFRQLESPNLRQLLSWIDLEYNHPPIFIVENGWFVSGTTKRDDAKYMYYLKKFIMETLKAIRLDGVDVIGYTAWSLMDGFEWHRGYSIRRGLFYVDFLSQDKELLPKSSALFYQKLIEDNGFPPLPENQPLEGTFPCDFAWGVVDNYVQVDTTLSQFTDPNVYLWDVHHSKRLIKVDGVVAKKRKPYCVDFSAIRPQITLLREMRVTHFRFSLDWALILPLGNQTQVNHTVLHFYRCMISELVHANITPVVALWQPAAPHQGLPHALAKHGAWENPHTALAFADYANLCFKELGHWVNLWITMNEPNTRNMTYRAGHHLLRAHALAWHLYDDKFRAAQKGKISIALQADWIEPACPFSQNDKEVAERVLEFDIGWLAEPIFGSGDYPRVMRDWLNQKNNFLLPYFTEDEKKLVRGSFDFLAVSHYTTILVDWEKEDPMKYNDYLEVQEMTDITWLNSPSQVAVVPWGLRKVLNWLRFKYGDLPMYVTANGIDDDPHAEQDSLRIYYIKNYVNEALKAYVLDDINLCGYFAYSLSDRSAPKSGFYRYAANQFEPKPSMKHYRKIIDSNGFLGSGTLGRFCPEEYTVCTECGFFQTRKSLLVFISFLVFTFIISLALIFHYSKKGQRSYK
